From the supplement of paper PMC12823440, “Inhibitors supercharge kinase turnover through native proteolytic circuits” (Nature, 2025)
Some of the results follow. The calls rarely recur for the same compound in another form.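 Kinases were expressed as nanoluciferase fusions in K562 cells and luminescence was read every 4 h between 2 and 18 h as percent of control, DMSO set to 100% and a positive control to 0%. A time point counts as decreased when the signal drops significantly (2 sigma). The hit call is the authors' own, does not follow from the count of time points alone, and its rule is not shown.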

The chains behind the UniProt entries cited, without tags or fusion partners. Where a name states a change or a piece, a line headed by the entry shows the natural chain unless it says otherwise.
UniProt P50613: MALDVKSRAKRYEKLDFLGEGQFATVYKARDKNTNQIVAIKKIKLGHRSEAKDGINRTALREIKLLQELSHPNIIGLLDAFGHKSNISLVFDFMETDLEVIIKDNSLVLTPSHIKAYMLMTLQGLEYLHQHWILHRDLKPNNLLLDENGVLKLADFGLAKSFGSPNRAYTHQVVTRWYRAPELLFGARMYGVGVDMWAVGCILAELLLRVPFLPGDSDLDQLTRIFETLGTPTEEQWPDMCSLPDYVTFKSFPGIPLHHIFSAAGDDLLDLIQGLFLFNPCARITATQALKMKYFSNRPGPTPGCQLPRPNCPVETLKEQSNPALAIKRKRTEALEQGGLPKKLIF
UniProt P50750, whole entry: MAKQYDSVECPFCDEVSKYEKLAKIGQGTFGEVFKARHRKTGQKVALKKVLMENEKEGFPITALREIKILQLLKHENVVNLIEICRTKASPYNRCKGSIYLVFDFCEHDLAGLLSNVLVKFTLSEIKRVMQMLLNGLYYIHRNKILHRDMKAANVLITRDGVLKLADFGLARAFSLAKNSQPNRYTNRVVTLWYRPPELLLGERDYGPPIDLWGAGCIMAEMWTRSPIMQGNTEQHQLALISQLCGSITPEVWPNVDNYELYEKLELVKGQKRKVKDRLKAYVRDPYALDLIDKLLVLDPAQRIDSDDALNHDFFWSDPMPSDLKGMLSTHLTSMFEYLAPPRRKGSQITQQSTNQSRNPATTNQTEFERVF
UniProt P41240: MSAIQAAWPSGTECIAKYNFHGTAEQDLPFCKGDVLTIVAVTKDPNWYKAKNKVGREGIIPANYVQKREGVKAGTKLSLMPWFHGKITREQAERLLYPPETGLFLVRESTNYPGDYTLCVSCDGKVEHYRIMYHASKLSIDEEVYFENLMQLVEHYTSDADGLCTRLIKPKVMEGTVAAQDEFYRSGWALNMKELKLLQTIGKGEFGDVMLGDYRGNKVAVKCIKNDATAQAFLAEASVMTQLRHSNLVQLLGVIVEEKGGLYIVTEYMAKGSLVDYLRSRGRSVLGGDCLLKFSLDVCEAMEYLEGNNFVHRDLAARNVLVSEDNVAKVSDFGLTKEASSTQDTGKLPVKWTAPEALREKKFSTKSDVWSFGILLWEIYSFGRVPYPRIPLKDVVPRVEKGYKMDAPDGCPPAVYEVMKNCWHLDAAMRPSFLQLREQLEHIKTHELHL
UniProt P48730: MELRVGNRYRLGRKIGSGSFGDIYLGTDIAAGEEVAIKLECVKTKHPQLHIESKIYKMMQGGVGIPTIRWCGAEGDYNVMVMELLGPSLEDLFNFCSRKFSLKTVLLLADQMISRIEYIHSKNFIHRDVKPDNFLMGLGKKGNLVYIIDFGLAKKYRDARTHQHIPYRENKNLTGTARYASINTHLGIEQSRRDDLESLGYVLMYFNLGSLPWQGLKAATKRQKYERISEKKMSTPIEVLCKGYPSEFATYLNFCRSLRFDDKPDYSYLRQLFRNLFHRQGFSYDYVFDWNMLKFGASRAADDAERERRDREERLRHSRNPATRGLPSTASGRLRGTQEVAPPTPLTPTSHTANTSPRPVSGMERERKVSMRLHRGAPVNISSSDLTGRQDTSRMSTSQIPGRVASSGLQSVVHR
UniProt Q08345: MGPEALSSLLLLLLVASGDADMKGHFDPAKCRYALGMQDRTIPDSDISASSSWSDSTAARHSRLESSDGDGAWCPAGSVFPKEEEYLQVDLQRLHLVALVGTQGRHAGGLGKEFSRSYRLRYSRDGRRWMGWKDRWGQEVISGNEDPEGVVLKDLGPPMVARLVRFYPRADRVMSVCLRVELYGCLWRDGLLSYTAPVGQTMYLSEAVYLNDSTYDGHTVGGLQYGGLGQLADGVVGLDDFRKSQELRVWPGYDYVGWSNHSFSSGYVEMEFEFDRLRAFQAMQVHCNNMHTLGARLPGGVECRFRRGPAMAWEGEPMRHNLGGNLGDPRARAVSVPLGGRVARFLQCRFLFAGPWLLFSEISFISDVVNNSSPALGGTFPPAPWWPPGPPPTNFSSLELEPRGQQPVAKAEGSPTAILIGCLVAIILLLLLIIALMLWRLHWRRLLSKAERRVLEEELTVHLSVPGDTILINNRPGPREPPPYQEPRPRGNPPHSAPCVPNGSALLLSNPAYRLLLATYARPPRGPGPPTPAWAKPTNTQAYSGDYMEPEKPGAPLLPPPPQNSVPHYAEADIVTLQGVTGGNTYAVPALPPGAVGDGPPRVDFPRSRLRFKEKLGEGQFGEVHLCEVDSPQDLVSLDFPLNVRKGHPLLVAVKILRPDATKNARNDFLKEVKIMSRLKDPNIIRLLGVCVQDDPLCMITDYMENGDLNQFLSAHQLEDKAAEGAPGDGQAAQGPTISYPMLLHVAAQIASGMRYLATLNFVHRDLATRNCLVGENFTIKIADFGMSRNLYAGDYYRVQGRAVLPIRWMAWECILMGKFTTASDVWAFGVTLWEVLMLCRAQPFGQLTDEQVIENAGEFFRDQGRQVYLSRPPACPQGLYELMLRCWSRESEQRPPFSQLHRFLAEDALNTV
UniProt Q9Y463, whole entry, looked up: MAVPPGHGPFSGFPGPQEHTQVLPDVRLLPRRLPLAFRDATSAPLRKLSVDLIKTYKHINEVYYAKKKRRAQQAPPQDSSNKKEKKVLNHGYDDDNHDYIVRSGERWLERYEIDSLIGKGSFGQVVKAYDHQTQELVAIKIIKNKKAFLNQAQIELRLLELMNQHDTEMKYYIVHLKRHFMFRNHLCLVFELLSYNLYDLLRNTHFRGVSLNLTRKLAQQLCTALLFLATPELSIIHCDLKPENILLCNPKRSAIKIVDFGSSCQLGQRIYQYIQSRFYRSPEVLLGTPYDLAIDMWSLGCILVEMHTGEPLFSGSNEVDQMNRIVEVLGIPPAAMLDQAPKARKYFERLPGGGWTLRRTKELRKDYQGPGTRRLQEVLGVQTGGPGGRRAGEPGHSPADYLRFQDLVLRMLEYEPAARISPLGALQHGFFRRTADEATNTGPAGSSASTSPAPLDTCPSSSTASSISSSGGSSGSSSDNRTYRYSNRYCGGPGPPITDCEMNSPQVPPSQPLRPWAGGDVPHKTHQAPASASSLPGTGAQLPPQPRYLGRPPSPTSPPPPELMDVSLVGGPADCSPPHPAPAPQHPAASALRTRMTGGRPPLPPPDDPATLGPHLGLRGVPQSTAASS
UniProt Q92630: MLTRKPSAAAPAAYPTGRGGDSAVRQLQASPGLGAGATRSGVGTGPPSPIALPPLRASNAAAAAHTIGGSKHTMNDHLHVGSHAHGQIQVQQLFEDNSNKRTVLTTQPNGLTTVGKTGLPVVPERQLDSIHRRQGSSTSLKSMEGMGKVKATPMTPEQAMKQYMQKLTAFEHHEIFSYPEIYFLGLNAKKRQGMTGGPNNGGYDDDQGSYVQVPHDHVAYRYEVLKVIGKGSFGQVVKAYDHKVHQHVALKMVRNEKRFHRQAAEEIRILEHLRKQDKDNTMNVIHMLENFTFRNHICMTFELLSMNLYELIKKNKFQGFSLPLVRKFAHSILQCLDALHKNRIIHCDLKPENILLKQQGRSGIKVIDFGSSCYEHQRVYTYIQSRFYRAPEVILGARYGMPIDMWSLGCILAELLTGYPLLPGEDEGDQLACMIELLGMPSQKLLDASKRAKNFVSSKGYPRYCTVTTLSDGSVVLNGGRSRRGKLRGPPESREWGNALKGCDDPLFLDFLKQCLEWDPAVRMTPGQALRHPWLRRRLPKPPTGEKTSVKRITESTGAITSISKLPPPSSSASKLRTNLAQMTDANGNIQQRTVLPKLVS
UniProt P21860, whole entry: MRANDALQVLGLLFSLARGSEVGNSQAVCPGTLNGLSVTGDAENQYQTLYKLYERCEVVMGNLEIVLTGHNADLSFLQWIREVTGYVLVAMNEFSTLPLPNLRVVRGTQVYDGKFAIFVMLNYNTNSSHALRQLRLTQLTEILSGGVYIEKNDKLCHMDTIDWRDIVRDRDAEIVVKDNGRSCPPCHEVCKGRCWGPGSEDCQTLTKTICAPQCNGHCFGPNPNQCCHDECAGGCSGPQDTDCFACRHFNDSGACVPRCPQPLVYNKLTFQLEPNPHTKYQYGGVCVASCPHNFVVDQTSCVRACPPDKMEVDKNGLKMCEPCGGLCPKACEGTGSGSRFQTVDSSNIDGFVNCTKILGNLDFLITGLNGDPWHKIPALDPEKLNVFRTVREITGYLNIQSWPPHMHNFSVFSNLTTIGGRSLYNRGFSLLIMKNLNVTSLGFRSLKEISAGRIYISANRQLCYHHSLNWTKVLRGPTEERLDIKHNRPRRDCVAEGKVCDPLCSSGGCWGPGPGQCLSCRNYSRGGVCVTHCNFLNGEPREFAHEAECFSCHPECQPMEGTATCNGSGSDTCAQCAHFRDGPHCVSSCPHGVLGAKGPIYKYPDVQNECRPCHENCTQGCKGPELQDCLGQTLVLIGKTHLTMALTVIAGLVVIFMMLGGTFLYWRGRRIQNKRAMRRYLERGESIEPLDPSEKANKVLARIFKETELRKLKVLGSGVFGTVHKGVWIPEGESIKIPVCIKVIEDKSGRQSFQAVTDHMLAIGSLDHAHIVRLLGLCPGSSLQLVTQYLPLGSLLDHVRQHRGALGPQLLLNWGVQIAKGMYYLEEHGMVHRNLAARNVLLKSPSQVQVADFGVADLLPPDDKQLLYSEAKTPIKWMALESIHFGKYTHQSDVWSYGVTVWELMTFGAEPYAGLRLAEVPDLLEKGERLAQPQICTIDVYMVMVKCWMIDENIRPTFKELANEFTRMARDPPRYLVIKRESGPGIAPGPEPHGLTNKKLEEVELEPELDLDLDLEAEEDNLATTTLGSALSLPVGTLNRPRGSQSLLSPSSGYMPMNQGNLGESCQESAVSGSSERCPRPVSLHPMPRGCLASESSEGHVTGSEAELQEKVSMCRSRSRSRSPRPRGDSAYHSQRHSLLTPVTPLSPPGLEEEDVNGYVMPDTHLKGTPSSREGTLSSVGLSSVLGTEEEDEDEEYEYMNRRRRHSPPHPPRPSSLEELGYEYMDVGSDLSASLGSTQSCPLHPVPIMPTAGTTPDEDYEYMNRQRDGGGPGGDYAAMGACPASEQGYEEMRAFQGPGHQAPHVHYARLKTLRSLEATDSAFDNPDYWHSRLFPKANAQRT
UniProt Q15303, whole entry R711C: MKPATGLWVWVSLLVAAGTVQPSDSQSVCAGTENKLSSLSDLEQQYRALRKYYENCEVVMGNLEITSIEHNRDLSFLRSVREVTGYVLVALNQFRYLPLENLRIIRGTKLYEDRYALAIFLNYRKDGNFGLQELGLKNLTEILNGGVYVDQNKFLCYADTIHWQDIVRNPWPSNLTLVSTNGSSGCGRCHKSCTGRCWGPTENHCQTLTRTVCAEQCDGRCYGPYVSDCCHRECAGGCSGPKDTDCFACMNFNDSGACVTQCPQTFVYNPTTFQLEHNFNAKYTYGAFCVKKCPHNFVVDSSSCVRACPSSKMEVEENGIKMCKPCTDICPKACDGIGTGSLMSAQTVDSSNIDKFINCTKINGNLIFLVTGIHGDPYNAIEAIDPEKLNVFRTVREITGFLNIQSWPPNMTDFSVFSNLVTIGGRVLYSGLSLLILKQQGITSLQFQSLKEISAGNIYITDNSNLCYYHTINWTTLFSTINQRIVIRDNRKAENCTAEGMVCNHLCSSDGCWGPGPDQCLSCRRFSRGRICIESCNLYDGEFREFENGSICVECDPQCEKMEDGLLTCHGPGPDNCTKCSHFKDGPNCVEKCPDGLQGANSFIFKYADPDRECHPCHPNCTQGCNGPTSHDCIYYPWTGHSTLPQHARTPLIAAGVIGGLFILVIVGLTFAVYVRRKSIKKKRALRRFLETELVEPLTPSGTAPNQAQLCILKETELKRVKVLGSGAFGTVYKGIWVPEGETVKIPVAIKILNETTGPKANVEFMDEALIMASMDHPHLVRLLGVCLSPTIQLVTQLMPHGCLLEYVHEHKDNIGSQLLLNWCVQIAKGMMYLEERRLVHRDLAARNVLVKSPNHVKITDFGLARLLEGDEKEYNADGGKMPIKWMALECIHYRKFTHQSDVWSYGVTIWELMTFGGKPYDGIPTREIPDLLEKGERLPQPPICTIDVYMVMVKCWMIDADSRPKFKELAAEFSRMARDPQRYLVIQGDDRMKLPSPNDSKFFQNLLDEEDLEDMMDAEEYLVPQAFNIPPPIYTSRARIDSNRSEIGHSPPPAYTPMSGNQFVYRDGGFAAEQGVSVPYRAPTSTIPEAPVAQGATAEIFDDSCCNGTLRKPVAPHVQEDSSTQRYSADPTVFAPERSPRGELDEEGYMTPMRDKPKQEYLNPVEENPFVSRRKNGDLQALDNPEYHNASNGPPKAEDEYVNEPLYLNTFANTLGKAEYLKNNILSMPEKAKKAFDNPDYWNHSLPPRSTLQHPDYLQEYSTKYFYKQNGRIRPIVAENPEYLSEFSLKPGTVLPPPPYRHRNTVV

What was measured:
Experiment in all cases: kinase-Nluc reporter destabilization hit call (1 = scored as downregulated) (binary); higher = compound decreases kinase abundance
Details in all cases: K562; 2-18 h
CDK7 = CDK7 (UniProt P50613)
CDK9 = CDK9 (UniProt P50750)
CHEK2 = CHEK2 (UniProt O96017)
CSF1R = CSF1R (UniProt P07333)
CSK = CSK (UniProt P41240)
CSNK1A1 = CSNK1A1 (UniProt P48729)
CSNK1D = CSNK1D (UniProt P48730)
DDR1 = DDR1 (UniProt Q08345)
DYRK1B = DYRK1B (UniProt Q9Y463)
DYRK2 = DYRK2 (UniProt Q92630)
EGFR = EGFR (UniProt P00533)
EGFR_G719S = EGFR_G719S (UniProt P00533)
EGFR_G719S_T790M = EGFR_G719S_T790M (UniProt P00533)
EGFR_L718V = EGFR_L718V (UniProt P00533)
EGFR_L858R = EGFR_L858R (UniProt P00533)
EGFR_L861Q = EGFR_L861Q (UniProt P00533)
EGFR_T790M = EGFR_T790M (UniProt P00533)
EPHA2 = EPHA2 (UniProt P29317)
ERBB3 = ERBB3 (UniProt P21860)
[1] = biological target: ERBB4_R711C (clone: ERBB4_mut) (UniProt Q15303)

Measured: kinase-Nluc reporter destabilization hit call

COc1cc2nccc(Oc3ccc(NC(=O)c4cn(C(C)C)c(=O)n(-c5ccc(F)cc5)c4=O)cc3F)c2cc1OC (0.5 µM)
inactive: CDK7 = 0 | CDK9 = 0 | CHEK2 = 0 | CSF1R 0 | CSK 0 | CSNK1A1 = 0 | CSNK1D 0 | DDR1 = 0 | DYRK1B 0 | DYRK2 = 0 | EGFR 0 | EGFR_G719S 0 | EGFR_G719S_T790M 0 | EGFR_L718V 0 | EGFR_L858R 0 | EGFR_L861Q 0 | EGFR_T790M 0 | EPHA2 = 0 | ERBB3 = 0 | [1] 0

O=C(NCCO)c1cc(C(=O)NCCO)cc(C(=O)NCCO)c1 (10 µM)
inactive: CDK7 = 0 | CDK9 = 0 | CHEK2 = 0 | CSF1R 0 | CSK 0 | CSNK1A1 = 0 | CSNK1D 0 | DDR1 = 0 | DYRK1B 0 | DYRK2 = 0 | EGFR 0 | EGFR_G719S 0 | EGFR_G719S_T790M 0 | EGFR_L718V 0 | EGFR_L858R 0 | EGFR_L861Q 0 | EGFR_T790M 0 | EPHA2 = 0 | ERBB3 = 0 | [1] 0

CO[C@H]1C[C@@H]2CC[C@@H](C)[C@@](O)(O2)C(=O)C(=O)N2CCCC[C@H]2C(=O)O[C@H]([C@H](C)C[C@@H]2CC[C@@H](OCCO)[C@H](OC)C2)CC(=O)[C@H](C)/C=C(\C)[C@@H](O)[C@@H](OC)C(=O)[C@H](C)C[C@H](C)/C=C/C=C/C=C/1C [Everolimus] (10 µM)
inactive: CDK7 = 0 | CDK9 = 0 | CHEK2 = 0 | CSF1R 0 | CSK 0 | CSNK1A1 = 0 | CSNK1D 0 | DDR1 = 0 | DYRK1B 0 | DYRK2 = 0 | EGFR 0 | EGFR_G719S 0 | EGFR_G719S_T790M 0 | EGFR_L718V 0 | EGFR_L858R 0 | EGFR_L861Q 0 | EGFR_T790M 0 | EPHA2 = 0 | ERBB3 = 0 | [1] 0

c1ccc(Cn2c(-c3ccc(OC[C@H](C4CCNCC4)n4c(-c5ccccc5)nc5ccccc54)cc3)nc3ccccc32)cc1 [Deltarasin] (2.5 µM)
inactive: CDK7 = 0 | CDK9 = 0 | CHEK2 = 0 | CSF1R 0 | CSK 0 | CSNK1A1 = 0 | CSNK1D 0 | DDR1 = 0 | DYRK1B 0 | DYRK2 = 0 | EGFR 0 | EGFR_G719S 0 | EGFR_G719S_T790M 0 | EGFR_L718V 0 | EGFR_L858R 0 | EGFR_L861Q 0 | EGFR_T790M 0 | EPHA2 = 0 | ERBB3 = 0 | [1] 0

COc1cc2c(cc1Nc1ncc(C(N)=O)c(Nc3c(F)cccc3C(F)(F)F)n1)CN(C)CC2 (2.5 µM)
inactive: CDK7 = 0 | CDK9 = 0 | CHEK2 = 0 | CSF1R 0 | CSK 0 | CSNK1A1 = 0 | CSNK1D 0 | DDR1 = 0 | DYRK1B 0 | DYRK2 = 0 | EGFR 0 | EGFR_G719S 0 | EGFR_G719S_T790M 0 | EGFR_L718V 0 | EGFR_L858R 0 | EGFR_L861Q 0 | EGFR_T790M 0 | EPHA2 = 0 | ERBB3 = 0 | [1] 0

CC1CN(CC2CCN(Cc3ccccc3)CC2)C(=O)N(c2cccc(C(=N)N)c2)C1 (stereo not given) (10 µM)
inactive: CDK7 = 0 | CDK9 = 0 | CHEK2 = 0 | CSF1R 0 | CSK 0 | CSNK1A1 = 0 | CSNK1D 0 | DDR1 = 0 | DYRK1B 0 | DYRK2 = 0 | EGFR 0 | EGFR_G719S 0 | EGFR_G719S_T790M 0 | EGFR_L718V 0 | EGFR_L858R 0 | EGFR_L861Q 0 | EGFR_T790M 0 | EPHA2 = 0 | ERBB3 = 0 | [1] 0

CC(C)=CC[C@@H](O)C1=CC(=O)c2c(O)ccc(O)c2C1=O [Shikonin] (10 µM)
inactive: CDK7 = 0 | CDK9 = 0 | CHEK2 = 0 | CSF1R 0 | CSK 0 | CSNK1A1 = 0 | CSNK1D 0 | DDR1 = 0 | DYRK1B 0 | DYRK2 = 0 | EGFR 0 | EGFR_G719S 0 | EGFR_G719S_T790M 0 | EGFR_L718V 0 | EGFR_L858R 0 | EGFR_L861Q 0 | EGFR_T790M 0 | EPHA2 = 0 | ERBB3 = 0 | [1] 0

O=C(O)c1ccc(/C=C/S(=O)(=O)Cc2ccc(Cl)cc2)cc1 [Recilisib] (10 µM)
inactive: CDK7 = 0 | CDK9 = 0 | CHEK2 = 0 | CSF1R 0 | CSK 0 | CSNK1A1 = 0 | CSNK1D 0 | DDR1 = 0 | DYRK1B 0 | DYRK2 = 0 | EGFR 0 | EGFR_G719S 0 | EGFR_G719S_T790M 0 | EGFR_L718V 0 | EGFR_L858R 0 | EGFR_L861Q 0 | EGFR_T790M 0 | EPHA2 = 0 | ERBB3 = 0 | [1] 0

CN1CCN(c2cc(-c3ccncc3)c(-c3ccc4ccccc4c3)nn2)CC1 (10 µM)
inactive: CDK7 = 0 | CDK9 = 0 | CHEK2 = 0 | CSF1R 0 | CSK 0 | CSNK1A1 = 0 | CSNK1D 0 | DDR1 = 0 | DYRK1B 0 | DYRK2 = 0 | EGFR 0 | EGFR_G719S 0 | EGFR_G719S_T790M 0 | EGFR_L718V 0 | EGFR_L858R 0 | EGFR_L861Q 0 | EGFR_T790M 0 | EPHA2 = 0 | ERBB3 = 0 | [1] 0

C=C1C(=O)[C@@]23[C@H](O)C[C@@H]4C(C)(C)C(=O)CC[C@@]4(C)[C@@H]2CC[C@@H]1[C@H]3O [Glaucocalyxin A] (2.5 µM)
inactive: CDK7 = 0 | CDK9 = 0 | CHEK2 = 0 | CSF1R 0 | CSK 0 | CSNK1A1 = 0 | CSNK1D 0 | DDR1 = 0 | DYRK1B 0 | DYRK2 = 0 | EGFR 0 | EGFR_G719S 0 | EGFR_G719S_T790M 0 | EGFR_L718V 0 | EGFR_L858R 0 | EGFR_L861Q 0 | EGFR_T790M 0 | EPHA2 = 0 | ERBB3 = 0 | [1] 0

O=C(O)[C@H]1O[C@@H](Oc2cc3oc(-c4ccc(O)cc4)cc(=O)c3c(O)c2O)[C@H](O)[C@@H](O)[C@@H]1O [Scutellarin] (10 µM)
inactive: CDK7 = 0 | CDK9 = 0 | CHEK2 = 0 | CSF1R 0 | CSK 0 | CSNK1A1 = 0 | CSNK1D 0 | DDR1 = 0 | DYRK1B 0 | DYRK2 = 0 | EGFR 0 | EGFR_G719S 0 | EGFR_G719S_T790M 0 | EGFR_L718V 0 | EGFR_L858R 0 | EGFR_L861Q 0 | EGFR_T790M 0 | EPHA2 = 0 | ERBB3 = 0 | [1] 0

Not a retest: two of the compounds above.
O=C(O)c1ccc(/C=C/S(=O)(=O)Cc2ccc(Cl)cc2)cc1 [Recilisib] (10 µM)
inactive: CDK7 = 0 | CDK9 = 0 | CHEK2 = 0 | CSF1R 0 | CSK 0 | CSNK1A1 = 0 | CSNK1D 0 | DDR1 = 0 | DYRK1B 0 | DYRK2 = 0 | EGFR 0 | EGFR_G719S 0 | EGFR_G719S_T790M 0 | EGFR_L718V 0 | EGFR_L858R 0 | EGFR_L861Q 0 | EGFR_T790M 0 | EPHA2 = 0 | ERBB3 = 0 | [1] 0

CN1CCN(c2cc(-c3ccncc3)c(-c3ccc4ccccc4c3)nn2)CC1 (10 µM)
inactive: CDK7 = 0 | CDK9 = 0 | CHEK2 = 0 | CSF1R 0 | CSK 0 | CSNK1A1 = 0 | CSNK1D 0 | DDR1 = 0 | DYRK1B 0 | DYRK2 = 0 | EGFR 0 | EGFR_G719S 0 | EGFR_G719S_T790M 0 | EGFR_L718V 0 | EGFR_L858R 0 | EGFR_L861Q 0 | EGFR_T790M 0 | EPHA2 = 0 | ERBB3 = 0 | [1] 0

Going on with the list:

C[C@@H]1O[C@@H](Oc2cc(O)c3c(=O)c(O[C@@H]4O[C@@H](C)[C@H](O)[C@@H](O)[C@H]4O)c(-c4ccc(O)cc4)oc3c2)[C@H](O)[C@H](O)[C@H]1O [Kaempferitrin] (10 µM)
inactive: CDK7 = 0 | CDK9 = 0 | CHEK2 = 0 | CSF1R 0 | CSK 0 | CSNK1A1 = 0 | CSNK1D 0 | DDR1 = 0 | DYRK1B 0 | DYRK2 = 0 | EGFR 0 | EGFR_G719S 0 | EGFR_G719S_T790M 0 | EGFR_L718V 0 | EGFR_L858R 0 | EGFR_L861Q 0 | EGFR_T790M 0 | EPHA2 = 0 | ERBB3 = 0 | [1] 0

COc1c(O)cc2oc(-c3ccc(O)cc3)cc(=O)c2c1O [Hispidulin] (10 µM)
inactive: CDK7 = 0 | CDK9 = 0 | CHEK2 = 0 | CSF1R 0 | CSK 0 | CSNK1A1 = 0 | CSNK1D 0 | DDR1 = 0 | DYRK1B 0 | DYRK2 = 0 | EGFR 0 | EGFR_G719S 0 | EGFR_G719S_T790M 0 | EGFR_L718V 0 | EGFR_L858R 0 | EGFR_L861Q 0 | EGFR_T790M 0 | EPHA2 = 0 | ERBB3 = 0 | [1] 0

O=C1OC(/C=C/c2ccccc2)=NC/1=C\c1cccnc1 (10 µM)
inactive: CDK7 = 0 | CDK9 = 0 | CHEK2 = 0 | CSF1R 0 | CSK 0 | CSNK1A1 = 0 | CSNK1D 0 | DDR1 = 0 | DYRK1B 0 | DYRK2 = 0 | EGFR 0 | EGFR_G719S 0 | EGFR_G719S_T790M 0 | EGFR_L718V 0 | EGFR_L858R 0 | EGFR_L861Q 0 | EGFR_T790M 0 | EPHA2 = 0 | ERBB3 = 0 | [1] 0

NCC1CCC(CNc2nc(NCc3ccccc3OC(F)(F)F)ncc2[N+](=O)[O-])CC1 (stereo not given) [PKC-theta inhibitor] (10 µM)
inactive: CDK7 = 0 | CDK9 = 0 | CHEK2 = 0 | CSF1R 0 | CSK 0 | CSNK1A1 = 0 | CSNK1D 0 | DDR1 = 0 | DYRK1B 0 | DYRK2 = 0 | EGFR 0 | EGFR_G719S 0 | EGFR_G719S_T790M 0 | EGFR_L718V 0 | EGFR_L858R 0 | EGFR_L861Q 0 | EGFR_T790M 0
active: EPHA2 = 1 | ERBB3 = 1 | [1] 1

Brc1ccc(CSc2nc3ccccc3o2)cc1 [BMP signaling agonist sb4] (10 µM)
inactive: CDK7 = 0 | CDK9 = 0 | CHEK2 = 0 | CSF1R 0 | CSK 0 | CSNK1A1 = 0 | CSNK1D 0 | DDR1 = 0 | DYRK1B 0 | DYRK2 = 0 | EGFR 0 | EGFR_G719S 0 | EGFR_G719S_T790M 0 | EGFR_L718V 0 | EGFR_L858R 0 | EGFR_L861Q 0 | EGFR_T790M 0 | EPHA2 = 0 | ERBB3 = 0 | [1] 0

Cc1ccc(C)c(OCCn2cc(C(=O)O)c3ccccc32)c1 (10 µM)
inactive: CDK7 = 0 | CDK9 = 0 | CHEK2 = 0 | CSF1R 0 | CSK 0 | CSNK1A1 = 0 | CSNK1D 0 | DDR1 = 0 | DYRK1B 0 | DYRK2 = 0 | EGFR 0 | EGFR_G719S 0 | EGFR_G719S_T790M 0 | EGFR_L718V 0 | EGFR_L858R 0 | EGFR_L861Q 0 | EGFR_T790M 0 | EPHA2 = 0 | ERBB3 = 0 | [1] 0
